According to publication PMC6451101:
These are yes or no findings as the source states them, for the method shown. In cells and extracts the contact can be indirect. Some entries that bind do so weakly or less than the wild type.

By UniProt entry, the sequences of proteins in these tests, tags left out.
UniProt P35226: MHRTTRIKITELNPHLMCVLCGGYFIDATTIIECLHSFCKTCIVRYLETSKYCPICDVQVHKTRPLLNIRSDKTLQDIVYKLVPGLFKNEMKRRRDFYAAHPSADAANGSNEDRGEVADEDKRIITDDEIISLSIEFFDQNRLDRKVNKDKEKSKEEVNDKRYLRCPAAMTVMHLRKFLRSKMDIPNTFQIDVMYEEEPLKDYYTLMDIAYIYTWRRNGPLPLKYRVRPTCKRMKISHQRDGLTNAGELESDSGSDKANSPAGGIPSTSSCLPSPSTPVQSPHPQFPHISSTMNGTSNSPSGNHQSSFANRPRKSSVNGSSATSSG
UniProt P03203: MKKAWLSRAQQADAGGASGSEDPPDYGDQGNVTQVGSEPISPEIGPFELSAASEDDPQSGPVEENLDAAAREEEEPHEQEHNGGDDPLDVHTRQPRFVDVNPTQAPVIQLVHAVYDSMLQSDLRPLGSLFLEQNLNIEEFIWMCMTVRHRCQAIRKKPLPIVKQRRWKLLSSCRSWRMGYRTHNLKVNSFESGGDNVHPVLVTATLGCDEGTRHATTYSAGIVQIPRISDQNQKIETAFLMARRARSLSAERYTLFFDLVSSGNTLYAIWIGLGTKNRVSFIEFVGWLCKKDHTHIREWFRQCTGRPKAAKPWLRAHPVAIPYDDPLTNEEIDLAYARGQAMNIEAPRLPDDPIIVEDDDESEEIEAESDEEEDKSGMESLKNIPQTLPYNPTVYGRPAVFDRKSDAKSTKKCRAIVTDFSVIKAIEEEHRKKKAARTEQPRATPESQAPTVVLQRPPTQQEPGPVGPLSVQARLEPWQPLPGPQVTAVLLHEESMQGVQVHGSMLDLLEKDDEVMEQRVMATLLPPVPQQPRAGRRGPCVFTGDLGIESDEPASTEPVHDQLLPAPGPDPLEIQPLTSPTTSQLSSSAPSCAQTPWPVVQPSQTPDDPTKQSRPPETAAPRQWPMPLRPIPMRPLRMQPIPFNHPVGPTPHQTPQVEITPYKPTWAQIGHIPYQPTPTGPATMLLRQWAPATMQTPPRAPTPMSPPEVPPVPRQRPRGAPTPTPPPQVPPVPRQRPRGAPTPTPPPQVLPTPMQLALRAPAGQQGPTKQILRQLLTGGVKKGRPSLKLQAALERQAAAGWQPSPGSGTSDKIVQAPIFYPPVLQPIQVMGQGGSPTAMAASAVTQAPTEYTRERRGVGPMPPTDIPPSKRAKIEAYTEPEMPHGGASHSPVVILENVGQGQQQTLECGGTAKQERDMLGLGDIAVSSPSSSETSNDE
UniProt P03204: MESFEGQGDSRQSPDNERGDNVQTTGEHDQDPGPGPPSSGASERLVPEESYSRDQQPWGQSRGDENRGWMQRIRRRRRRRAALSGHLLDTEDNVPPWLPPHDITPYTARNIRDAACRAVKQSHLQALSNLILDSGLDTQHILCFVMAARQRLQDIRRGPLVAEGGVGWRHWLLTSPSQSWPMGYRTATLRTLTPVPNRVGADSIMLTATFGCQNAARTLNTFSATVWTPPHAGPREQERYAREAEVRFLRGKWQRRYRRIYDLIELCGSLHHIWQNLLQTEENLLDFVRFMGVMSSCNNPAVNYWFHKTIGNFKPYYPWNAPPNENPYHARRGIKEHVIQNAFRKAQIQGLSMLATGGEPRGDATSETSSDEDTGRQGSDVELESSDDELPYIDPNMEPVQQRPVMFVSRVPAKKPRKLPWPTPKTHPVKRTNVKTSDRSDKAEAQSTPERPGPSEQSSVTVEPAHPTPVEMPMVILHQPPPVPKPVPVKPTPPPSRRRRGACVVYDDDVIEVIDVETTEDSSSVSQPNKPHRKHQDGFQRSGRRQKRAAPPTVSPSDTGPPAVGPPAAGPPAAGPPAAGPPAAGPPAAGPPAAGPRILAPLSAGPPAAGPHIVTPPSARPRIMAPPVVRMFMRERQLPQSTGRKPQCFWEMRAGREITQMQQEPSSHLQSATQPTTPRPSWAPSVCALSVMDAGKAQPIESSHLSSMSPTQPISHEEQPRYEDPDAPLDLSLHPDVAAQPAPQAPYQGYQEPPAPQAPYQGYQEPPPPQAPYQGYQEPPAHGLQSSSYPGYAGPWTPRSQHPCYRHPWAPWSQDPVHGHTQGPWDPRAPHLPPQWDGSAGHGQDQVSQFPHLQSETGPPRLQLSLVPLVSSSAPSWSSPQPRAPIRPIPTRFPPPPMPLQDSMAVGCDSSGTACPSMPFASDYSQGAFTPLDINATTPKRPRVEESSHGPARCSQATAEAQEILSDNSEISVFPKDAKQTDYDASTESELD

Molecular target: BMI1 (human (endogenous in LCL)) (UniProt P35226)
Experiment: co-IP; rabbit anti-BMI1 antibody (Bethyl A301-694A, 2 ug) used to immunoprecipitate BMI1 from extracts of LCLs infected with B95.8 EBV; rabbit anti-FLAG antibody as negative control; precipitates western blotted for EBNA3A, EBNA3B, EBNA3C; more than three independent experiments

| Substance | binding |
| --- | --- |
| Epstein-Barr virus nuclear antigen EBNA3B (from UniProt P03203 1-938) | no binding |
| Epstein-Barr virus nuclear antigen EBNA3C (from UniProt P03204 1-992) | binds |
